{
  "source": "PubChem BioAssay AID504834",
  "about": "(National Center for Advancing Translational Sciences (NCATS), 2011)",
  "note": "Hit rate of the full screen: of about 320,000 compounds, about 22,000 (6.9%) were called active. The inconclusive results got no clear call from the source; some entries with a clear call stand among them for comparison. Calls follow the shape of the dose curve; as a rule, active = well fitted inhibition curve with a large enough effect; inconclusive = small, poorly fitted or top-dose-only effect, or another doubt; inactive = no such curve, though single readings can be large or run the other way. Potencies beside an inconclusive call are fits to weak or partial responses and may not hold up. Potency is read from the fitted curve at half-maximal effect.",
  "data": [
    {"experiment": "Primary qHTS for delayed death inhibitors of the malarial parasite plastid, 96 hour incubation", "conditions": "P. falciparum luciferase reporter growth; series mostly up to 28.7 µM", "method_in_brief": "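Plates of compound plus infected erythrocytes (2% hematocrit, 0.05% parasitemia final) incubate 96 hours, 37 C, 5% CO2. Detection reagent added; reduced luminescence from the parasites' luciferase reporter flags inhibition.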", "values": [
      {"compound": "NC1=NC[C@H](Cc2ccccc2)N1CCCCC1CCCCC1", "Potency": "active: 11.7 µM"},
      {"compound": "COc1cc(CNC(=O)CCn2nc(C)c3c(C)n(-c4ccccc4)nc3c2=O)cc(OC)c1OC", "Potency": "inconclusive: 11.7 µM [inhibitor, single point]"},
      {"compound": "COc1ccc(CNC(=O)Cc2cccs2)cc1", "Potency": "inconclusive: 18.5 µM [inhibitor, single point]"},
      {"compound": "COc1ccccc1/C=C/C(=O)Nc1cccc(S(=O)(=O)NC2=NCCCCC2)c1", "Potency": "inconclusive: 10.4 µM [inhibitor, single point]"},
      {"compound": "COc1ccc(C(=O)NNC(=O)C2CC=CCC2)cc1", "note": "(stereo not given)", "Potency": "active: 2.33 µM"},
      {"compound": "COCCCn1c(N)c(C(=O)Nc2ccccc2)c2nc3ccccc3nc21", "Potency": "inconclusive: 18.5 µM [inhibitor, single point]"},
      {"compound": "Cc1ccc(S(=O)(=O)N2CCOCC2)cc1NC(=O)COc1ccc(C(=O)c2ccccc2)cc1", "Potency": "inconclusive: 10.4 µM [inhibitor, single point]"},
      {"compound": "S=C(NCCC(c1ccccc1)c1ccccc1)Nc1ccccc1Cl", "Potency": "active: 4.65 µM"},
      {"compound": "O=C(Nc1cnc2sccn2c1=O)c1ccccc1Cl", "Potency": "inactive"},
      {"compound": "Cc1ccccc1C(=O)Nc1nnc(-c2cccnc2)o1", "Potency": "inactive"},
      {"compound": "CCOc1ccc(CCNC(=O)CCC(=O)Nc2ccc3nc(N4CCN(C)CC4)cc(C)c3c2)cc1OCC", "Potency": "inconclusive: 3.29 µM [inhibitor, full curve, poor fit]"},
      {"compound": "COc1nc(C)cc(C)c1S(=O)(=O)c1ccccc1C", "Potency": "inconclusive: 20.8 µM [inhibitor, partial curve, poor fit]"},
      {"compound": "CN(c1nc2c(c(=O)n(C)c(=O)n2C)n1CC(=O)c1ccccc1)C1CCCCC1", "Potency": "active: 10.4 µM"},
      {"compound": "Cc1csc(SCc2ccc(C(=O)O)cc2)n1", "Potency": "inconclusive: 0.185 µM [inhibitor, full curve, poor fit]"},
      {"compound": "CC(=O)N/N=C(\\C)C1COc2ccccc2O1", "note": "(stereo not given)", "Potency": "inactive"},
      {"compound": "O=C(Nc1cccc(S(=O)(=O)NC2=NCCCCC2)c1)c1ccc(Cl)cc1", "Potency": "inconclusive: 0.185 µM [inhibitor, full curve, poor fit]"},
      {"compound": "CC1(C)CC(NC(=S)NC2CC2)CC(C)(C)N1", "Potency": "inconclusive: 0.131 µM [inhibitor, full curve, poor fit]"},
      {"compound": "COc1ccc(C2=NCC(=S)Nc3ccc(Cl)cc32)cc1Cl", "Potency": "inconclusive: 18.5 µM [inhibitor, single point]"},
      {"compound": "COC(=O)c1ccc(NC(=O)CS(=O)(=O)c2ccccc2)cc1", "Potency": "inactive"},
      {"compound": "CC(=O)Nc1ccc(NC(=O)CN(c2ccccc2Cl)S(C)(=O)=O)cc1", "Potency": "inconclusive: 4.15 µM [inhibitor, single point]"}
    ]}
  ]
}
